These are yes or no findings as the source states them, for the method shown. In cells and extracts the contact can be indirect. Some binding calls cover weakened binding; strength is not graded here. Sequences can lack the tags named with a protein.
Key:
[1] = molecular target: NogoB (ASY) (Homo sapiens (Human)) (UniProt Q9NQC3); test: co-immunoprecipitation from cell lysates
[2] = molecular target: NogoB (ASY) (Homo sapiens (Human)) (UniProt Q9NQC3); test: His-tagged BACE purified from HEK293 membrane fraction on Ni-NTA then anti-His sepharose; co-purified gel bands identified by LC/MS/MS

Chains of the proteins cited; added tags and fusions are not shown. Lines headed by an entry give the natural chain unless they say otherwise; changes in a name come on top.
UniProt Q9NQC3: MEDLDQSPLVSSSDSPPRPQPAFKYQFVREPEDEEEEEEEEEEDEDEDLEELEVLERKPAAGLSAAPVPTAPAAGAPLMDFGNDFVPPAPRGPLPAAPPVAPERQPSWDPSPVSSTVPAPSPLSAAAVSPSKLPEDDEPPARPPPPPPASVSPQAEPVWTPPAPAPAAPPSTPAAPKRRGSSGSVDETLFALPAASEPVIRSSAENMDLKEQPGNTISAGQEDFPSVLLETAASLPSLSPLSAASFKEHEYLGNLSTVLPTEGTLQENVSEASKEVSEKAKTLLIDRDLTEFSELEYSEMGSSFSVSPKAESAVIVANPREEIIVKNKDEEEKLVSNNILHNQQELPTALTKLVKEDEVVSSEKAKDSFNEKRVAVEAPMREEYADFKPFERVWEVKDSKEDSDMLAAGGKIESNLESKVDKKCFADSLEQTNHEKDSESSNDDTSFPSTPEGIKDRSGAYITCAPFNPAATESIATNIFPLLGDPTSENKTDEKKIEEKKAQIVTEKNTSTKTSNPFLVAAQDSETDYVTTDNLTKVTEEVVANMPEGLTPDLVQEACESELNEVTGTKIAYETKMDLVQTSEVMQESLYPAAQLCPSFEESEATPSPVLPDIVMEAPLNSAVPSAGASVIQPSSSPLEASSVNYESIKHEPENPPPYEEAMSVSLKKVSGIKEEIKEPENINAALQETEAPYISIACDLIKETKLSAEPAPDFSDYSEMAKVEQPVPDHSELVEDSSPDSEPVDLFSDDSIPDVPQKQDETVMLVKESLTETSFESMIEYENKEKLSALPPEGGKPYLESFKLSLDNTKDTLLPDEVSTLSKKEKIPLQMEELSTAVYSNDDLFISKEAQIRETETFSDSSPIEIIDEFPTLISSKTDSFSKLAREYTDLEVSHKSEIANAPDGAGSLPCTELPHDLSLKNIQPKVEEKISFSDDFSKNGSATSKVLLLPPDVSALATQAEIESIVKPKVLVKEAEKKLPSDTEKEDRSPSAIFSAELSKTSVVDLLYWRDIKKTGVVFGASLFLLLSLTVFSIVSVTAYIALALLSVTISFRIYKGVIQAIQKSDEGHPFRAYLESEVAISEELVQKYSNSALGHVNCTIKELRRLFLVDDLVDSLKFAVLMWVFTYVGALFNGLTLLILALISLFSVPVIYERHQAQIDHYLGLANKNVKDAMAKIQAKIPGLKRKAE

binding [1]: binds
binding [2]: binds
B1: BACE1 with an 8 residue histidine tag inserted in frame at the C-terminus (enzyme)
chain: ETDEEPEEPGRRGSFVEMVDNLRGKSGQGYYVEMTVGSPPQTLNILVDTGSSNFAVGAAPHPFLHRYYQRQLSSTYRDLRKGVYVPYTQGKWEGELGTDLVSIPHGPNVTVRANIAAITESDKFFINGSNWEGILGLAYAEIARPDDSLEPFFDSLVKQTHVPNLFSLQLCGAGFPLNQSEVLASVGGSMIIGGIDHSLYTGSLWYTPIRREWYYEVIIVRVEINGQDLKMDCKEYNYDKSIVDSGTTNLRLPKKVFEAAVKSIKAASSTEKFPDGFWLGEQLVCWQAGTTPWNIFPVISLYLMGEVTNQSFRITILPQQYLRPVEDVATSQDDCYKFAISQSSTGTVMGAVIMEGFYVVFDRARKRIGFAVSACHVHDEFRTAAVEGPFVTLDMEDCGYNIPQTDESTLMTIAYVMAAICALFMLPLCLMVCQWRCLRCLRQQHDDFADDISLLKHHHHHHHH

Source: patent US20040132096A1
